The target in this experiment is T1, Flag-C2CD4A (C2 calcium dependent domain containing 4A), expressed in 293T cells (human) (UniProt Q8NCU7).
T1 sequence: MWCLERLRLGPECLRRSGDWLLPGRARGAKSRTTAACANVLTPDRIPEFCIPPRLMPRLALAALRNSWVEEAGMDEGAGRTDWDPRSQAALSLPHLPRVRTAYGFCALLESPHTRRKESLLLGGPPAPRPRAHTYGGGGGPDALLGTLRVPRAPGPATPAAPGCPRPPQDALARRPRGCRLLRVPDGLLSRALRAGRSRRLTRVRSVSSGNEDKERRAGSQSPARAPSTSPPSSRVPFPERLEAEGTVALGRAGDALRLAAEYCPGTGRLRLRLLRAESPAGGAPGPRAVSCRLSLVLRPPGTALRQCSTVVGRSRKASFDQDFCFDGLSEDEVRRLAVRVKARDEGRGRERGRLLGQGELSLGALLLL
The experiment in a line: affinity purification with mass spectrometry; 293 T cells transfected with Flag-C2CD4A, lysed in RIPA buffer (20 mM Tris-HCl pH 8, 137 mM NaCl, 0.5% Triton X-100, 2 mM EDTA); Flag-M2 agarose beads overnight, eluted by Flag peptides; SDS-PAGE bands specific to Flag-C2CD4A analysed by mass spectrometry; Flag-vector as control.

These are yes or no findings as the source states them, for the method shown. In cells and extracts the contact can be indirect. A yes stands for co-enrichment or nearness to the bait. Other partners may have been found. Tags and fused reporters may be left off the sequences shown.

For the substance “p53 found in the Flag-C2CD4A immunoprecipitate from 293T cells (from UniProt P04637 1-393)”, the binding entry is listed as “binds”.
